Data as given in PubChem BioAssay AID1259405 (NCATS, 2018)
In all, the deposit lists about 50,000 reagents; shown is a random part of them. About 4,000 of them (8%) were called active. 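Mouse siRNA library applied to hamster cells; one well for each siRNA.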 The numbers tell different reagents against one gene apart. No sequences are given here.

- Purpose: 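Silenced genes that increase secreted GFP made by CHO cells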 (primary screen)
- System: Chinese hamster CHO-K1 ovary cells with stable secreted eGFP expression
- Reagent: single siRNA against mouse genes, 0.8 pmol siRNA per well (2 µl of 400 nM stock)
- Time to read-out: 3 days
- Detection: 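Per-well intracellular GFP measured by laser scanning cytometry, plus viability from ATP luminescence, each relative to plate median of non-targeting control wells, in %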
- Reading the numbers: GFP, % of control: higher = more GFP per well, higher productivity; viability (ATP), % of control: higher = more viable cells (more ATP)
- Hit rule: 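Called active when intracellular GFP, relative to negative control, is at or above 120%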

no.	Target gene	siRNA no.	GFP, % of control	viability (ATP), % of control	outcome
1	Srsf7 (serine and arginine-rich splicing factor 7)	1	95.4	54.6	inactive
2	Srsf7 (serine and arginine-rich splicing factor 7)	2	79.7	81.6	inactive
3	Srsf7 (serine and arginine-rich splicing factor 7)	3	66	64.9	inactive
4	Ebf4 (early B cell factor 4)	1	80.7	97.5	inactive
5	Ebf4 (early B cell factor 4)	2	87.1	79.7	inactive
6	Ebf4 (early B cell factor 4)	3	107	50.9	inactive
7	Prl6a1 (prolactin family 6, subfamily a, member 1)	1	100	84.6	inactive
8	Prl6a1 (prolactin family 6, subfamily a, member 1)	2	83.7	71.8	inactive
9	Prl6a1 (prolactin family 6, subfamily a, member 1)	3	85.4	54.9	inactive
10	Tmem41b (transmembrane protein 41B)	1	62	89.3	inactive
11	Tmem41b (transmembrane protein 41B)	2	84	77.2	inactive
12	Tmem41b (transmembrane protein 41B)	3	73.2	85.6	inactive
13	Qrfprl (pyroglutamylated RFamide peptide receptor like)	1	81.1	73.2	inactive
14	Qrfprl (pyroglutamylated RFamide peptide receptor like)	2	68.2	88.9	inactive
15	Qrfprl (pyroglutamylated RFamide peptide receptor like)	3	61.7	46	inactive
16	Pcdhga8 (protocadherin gamma subfamily A, 8)	1	91.7	72.5	inactive
17	Pcdhga8 (protocadherin gamma subfamily A, 8)	2	51.2	58	inactive
18	Pcdhga8 (protocadherin gamma subfamily A, 8)	3	59.6	72.8	inactive
19	Slc7a6	1	173	60.5	active
20	Slc7a6	2	42.5	38	inactive
21	Slc7a6	3	72.8	69.1	inactive
22	Slc7a6	4	86.9	72.3	inactive
23	Slc7a6	5	99.2	109	inactive
24	Slc7a6	6	91.2	96.1	inactive
25	Gabpb1 (GA repeat binding protein, beta 1)	1	45.6	43.6	inactive
26	Gabpb1 (GA repeat binding protein, beta 1)	2	62.7	64.6	inactive
27	Gabpb1 (GA repeat binding protein, beta 1)	3	80.2	83.1	inactive
28	Serf2 (small EDRK-rich factor 2)	1	104	60.9	inactive
29	Serf2 (small EDRK-rich factor 2)	2	54.4	41.4	inactive
30	Serf2 (small EDRK-rich factor 2)	3	64.4	74.6	inactive
31	Prickle3 (prickle planar cell polarity protein 3)	1	146	80.2	active
32	Prickle3 (prickle planar cell polarity protein 3)	2	102	96.8	inactive
33	Ccl19 (C-C motif chemokine ligand 19)	1	131	118	active
34	Ccl19 (C-C motif chemokine ligand 19)	2	71.4	86.1	inactive
35	Stk4 (serine/threonine kinase 4)	1	127	104	active
36	Stk4 (serine/threonine kinase 4)	2	63.5	49.6	inactive
37	Stk4 (serine/threonine kinase 4)	3	48.9	70.1	inactive
38	Kdr (kinase insert domain protein receptor)	1	76.6	55	inactive
39	A830073O21Rik (RIKEN cDNA A830073O21 gene)	1	103	37.1	inactive
40	A830073O21Rik (RIKEN cDNA A830073O21 gene)	2	64.2	59.5	inactive
41	A830073O21Rik (RIKEN cDNA A830073O21 gene)	3	90.6	67.4	inactive
42	Zfp830 (zinc finger protein 830)	1	66.2	60.8	inactive
43	Zfp830 (zinc finger protein 830)	2	21.9	41.4	inactive
44	Zfp830 (zinc finger protein 830)	3	93.9	114	inactive
45	Stx17 (syntaxin 17)	1	74.3	61.9	inactive
46	Stx17 (syntaxin 17)	2	84.7	82.2	inactive
47	Stx17 (syntaxin 17)	3	116	68	inactive
48	Actn4 (actinin alpha 4)	1	128	82.7	active
49	Actn4 (actinin alpha 4)	2	77.4	93.2	inactive
50	Gabra3 (gamma-aminobutyric acid type A receptor subunit alpha 3)	1	48.4	71.1	inactive
51	Gabra3 (gamma-aminobutyric acid type A receptor subunit alpha 3)	2	34.7	51.9	inactive
52	Gabra3 (gamma-aminobutyric acid type A receptor subunit alpha 3)	3	45.5	64.5	inactive
53	Zbtb38 (zinc finger and BTB domain containing 38)	1	70	76.9	inactive
54	Zbtb38 (zinc finger and BTB domain containing 38)	2	90.8	72.1	inactive
55	Slit3 (slit guidance ligand 3)	1	81.8	97.3	inactive
56	Slit3 (slit guidance ligand 3)	2	69.7	52.1	inactive
57	Slit3 (slit guidance ligand 3)	3	109	90.5	inactive
